Measurements as given in PMC7583203.
These are yes or no findings as the source states them, for the method shown. In cells and extracts the contact can be indirect. Some entries that bind do so weakly or less than the wild type.

Protein sequences, listed by entry. Tags and fused reporters are not part of them.
UniProt O95863: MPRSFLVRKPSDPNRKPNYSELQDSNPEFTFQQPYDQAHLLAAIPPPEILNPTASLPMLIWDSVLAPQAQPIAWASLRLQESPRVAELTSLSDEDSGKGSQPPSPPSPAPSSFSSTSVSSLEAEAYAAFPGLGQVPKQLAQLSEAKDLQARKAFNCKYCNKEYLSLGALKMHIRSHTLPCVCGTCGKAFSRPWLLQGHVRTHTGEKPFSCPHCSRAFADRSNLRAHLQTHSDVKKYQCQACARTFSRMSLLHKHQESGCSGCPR
UniProt Q9GZV5: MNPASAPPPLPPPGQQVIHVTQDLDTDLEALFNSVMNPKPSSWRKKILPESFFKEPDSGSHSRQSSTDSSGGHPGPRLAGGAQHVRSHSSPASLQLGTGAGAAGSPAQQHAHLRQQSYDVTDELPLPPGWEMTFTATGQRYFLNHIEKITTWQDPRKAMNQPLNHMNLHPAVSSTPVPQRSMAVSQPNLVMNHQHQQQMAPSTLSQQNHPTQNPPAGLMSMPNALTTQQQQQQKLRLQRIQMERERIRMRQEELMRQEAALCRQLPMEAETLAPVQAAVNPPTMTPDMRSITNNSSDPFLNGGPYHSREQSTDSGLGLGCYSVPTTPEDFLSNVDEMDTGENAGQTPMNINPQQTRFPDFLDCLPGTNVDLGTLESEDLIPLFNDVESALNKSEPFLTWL
UniProt P05412: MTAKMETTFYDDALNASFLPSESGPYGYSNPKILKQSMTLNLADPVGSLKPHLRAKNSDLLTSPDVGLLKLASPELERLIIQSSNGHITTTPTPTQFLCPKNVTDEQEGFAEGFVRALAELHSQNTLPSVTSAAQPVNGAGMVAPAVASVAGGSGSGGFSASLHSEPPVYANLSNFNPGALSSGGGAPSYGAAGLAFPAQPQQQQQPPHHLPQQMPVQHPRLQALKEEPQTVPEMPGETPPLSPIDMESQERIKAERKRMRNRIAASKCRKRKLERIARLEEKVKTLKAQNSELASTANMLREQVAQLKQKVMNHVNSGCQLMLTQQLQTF

What was measured:
Flag-Snail = Flag-Snail (UniProt O95863); assay: co-IP; A549 cells transfected with Snail-flag or HA-TAZ for 48 h; lysis in 20 mM Tris-HCl pH 7.4, 150 mM NaCl, 1 mM EDTA, 1% Triton-X100; anti-HA/flag antibody with protein A/G plus agarose, 4 °C overnight; washed three times with PBS; western blot for Snail, TAZ and c-Jun
HA-TAZ = HA-TAZ (UniProt Q9GZV5); assay: as above

Substance | binding (Flag-Snail) | binding (HA-TAZ)
c-Jun (from UniProt P05412 1-331) | binds | binds
Snail (from UniProt O95863 1-264) |  | binds
TAZ (from UniProt Q9GZV5 1-400) | binds | 
